In US20260001914A1 (Merck Sharp & Dohme LLC, priority 2022, published 2026) one finds crude mass data, which are given here for one substance.

HELM strings list residues between dots; [ac] is acetyl, [am] amide, other brackets name non-standard units.

The series in a line: general procedure: Fmoc solid-phase peptide synthesis; 2-Chlorotrityl resin preloaded with Fmoc-NMeF-OH; HATU/NMM; DIC/Oxyma Pure. The following applies: whole synthesis, scale 0.2 mmol.

In turn, “PEPTIDE1{[CH2CO].F.R.[4Pal].L.[TyrOMe].[Nva].[NMeF].[dC].[am]}$PEPTIDE1,PEPTIDE1,1:R3-9:R3$$$V2.0” registered a crude mass of 260 mg.
